Data reported in the supplement of paper PMC4604168 (melanoma cell lines).
Some of the results follow. Many values rest on one well or one pass, so single values are uncertain.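 Imaging used 1,536-well plates; nuclei positive for cleaved PARP by antibody were divided by total DNA-stained nuclei to yield the apoptosis fraction. Doses for screening kept most cells viable, and cell lines differ markedly in resting and induced cleaved-PARP levels.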

Legend:
Experiment in all cases: cleaved PARP positive nuclei fraction relative to DMSO control; melanoma cells; higher = more apoptosis
Settings in all cases: library dose: low library concentration; 72 h
MZ2-MEL = tested on: MZ2-MEL
MeWo = tested on: MeWo
RPMI7951 = tested on: RPMI7951
RVH-421 = tested on: RVH-421
SkMel28 = tested on: SkMel28
SkMel2 = tested on: SkMel2
SkMel30 = tested on: SkMel30
UACC62 = tested on: UACC62
WM115 = tested on: WM115
WM1716 = tested on: WM1716
WM1745 = tested on: WM1745
WM3526 = tested on: WM3526
WM3619 = tested on: WM3619
WM451Lu = tested on: WM451Lu

Row | SMILES | cleaved PARP positive nuclei fraction (MZ2-MEL) | cleaved PARP positive nuclei fraction (MeWo) | cleaved PARP positive nuclei fraction (RPMI7951) | cleaved PARP positive nuclei fraction (RVH-421) | cleaved PARP positive nuclei fraction (SkMel28) | cleaved PARP positive nuclei fraction (SkMel2) | cleaved PARP positive nuclei fraction (SkMel30) | cleaved PARP positive nuclei fraction (UACC62) | cleaved PARP positive nuclei fraction (WM115) | cleaved PARP positive nuclei fraction (WM1716) | cleaved PARP positive nuclei fraction (WM1745) | cleaved PARP positive nuclei fraction (WM3526) | cleaved PARP positive nuclei fraction (WM3619) | cleaved PARP positive nuclei fraction (WM451Lu)
1 | C[C@]1(O)C[C@@H](c2nc(-c3ccc4ccc(-c5ccccc5)nc4c3)c3c(N)nccn32)C1 + Cc1nc(Nc2ncc(C(=O)Nc3c(C)cccc3Cl)s2)cc(N2CCN(CCO)CC2)n1 [dasatanib] (first compound 0.4 µM, partner dose 0.004 µM) | 108% | 181% | 172% | 32.5% | 197% | 63.6% | 86.5% | 251% | 18.9% | 330% | 201% | 49.8% | 107% | 99%
2 | CC1(C)CCC(c2ccc(Cl)cc2)=C(CN2CCN(c3ccc(C(=O)NS(=O)(=O)c4ccc(N[C@H](CCN5CCOCC5)CSc5ccccc5)c(S(=O)(=O)C(F)(F)F)c4)cc3)CC2)C1 + NC(=O)c1ccc(N(C(N)=O)c2c(F)cccc2F)nc1-c1ccc(F)cc1F [VX702] (first compound 0.4 µM, partner dose 0.4 µM) | 121% | 435% | 146% | 566% | 58.9% | 145% | 140% | 149% | 309% | 91.8% | 801% | 96.1% | 121% | 411%
3 | Cn1sc(=O)n(Cc2ccccc2)c1=O + CCCS(=O)(=O)Nc1ccc(F)c(C(=O)c2c[nH]c3ncc(Cl)cc23)c1F [PLX4720] (first compound 0.4 µM, partner dose 0.08 µM) | 20.3% | 195% | 46% | 84.3% | 74.9% | 135% | 146% | 113% | 51.9% | 71.2% | 83.3% | 80.1% | 108% | 86.9%
4 | CCCCCCCCc1ccc(CCC(N)(CO)CO)cc1 [fingolimod] + Nc1ccn([C@@H]2O[C@H](CO)[C@@H](O)C2(F)F)c(=O)n1 [gemcitabine] (first compound 2 µM, partner dose 0.0004 µM) | 107% | 77.4% | 227% | 36.8% | 95.2% | 30.5% | 105% | 143% | 139% | 332% | 114% | 44% | 110% | 35.5%
5 | CS(=O)(=O)c1ccc(C(=O)Nc2ccc(Cl)c(-c3ccccn3)c2)c(Cl)c1 [vismodegib] + Cn1c(=O)n(-c2ccc(C(C)(C)C#N)cc2)c2c3cc(-c4cnc5ccccc5c4)ccc3ncc21 [NVP-BEZ235] (first compound 1 µM, partner dose 0.004 µM) | 63.1% | 75.5% | 132% | 36.1% | 39.9% | 94.2% | 90.9% | 108% | 103% | 22.8% | 91.3% | 19.2% | 99.6% | 88.8%
6 | CC1(C)CCC(c2ccc(Cl)cc2)=C(CN2CCN(c3ccc(C(=O)NS(=O)(=O)c4ccc(N[C@H](CCN5CCOCC5)CSc5ccccc5)c(S(=O)(=O)C(F)(F)F)c4)cc3)CC2)C1 + C#Cc1cccc(Nc2ncnc3cc(OCCOC)c(OCCOC)cc23)c1 [erlotinib] (first compound 0.4 µM, partner dose 0.8 µM) | 347% | 552% | 233% | 125% | 80.8% | 134% | 458% | 91% | 388% | 94.2% | 1120% | 43.2% | 122% | 180%
7 | COc1ccc(C2=N[C@@H](c3ccc(Cl)cc3)[C@@H](c3ccc(Cl)cc3)N2C(=O)N2CCNC(=O)C2)c(OC(C)C)c1 [Nutlin-3] + CN1CCN(c2ccc3nc(-c4c(N)c5c(F)cccc5[nH]c4=O)[nH]c3c2)CC1 [Dovitinib] (first compound 0.1 µM, partner dose 0.1 µM) | 104% | 161% | 133% | 129% | 83.9% | 79.3% | 105% | 128% | 273% | 99.2% | 121% | 37.8% | 108% | 78.7%
8 | NC1(c2ccc(-c3nc4ccn5c(=O)[nH]nc5c4cc3-c3ccccc3)cc2)CCC1 + Nc1cccc2c1CN(C1CCC(=O)NC1=O)C2=O [lenalidomide] (first compound 0.4 µM, partner dose 1 µM) | 27.9% | 64.7% | 53.7% | 134% | 181% | 15.2% | 38.2% | 269% | 140% | 89.2% | 103% | 88.6% | 99.5% | 52%
9 | C[C@]1(O)C[C@@H](c2nc(-c3ccc4ccc(-c5ccccc5)nc4c3)c3c(N)nccn32)C1 + CS(=O)(=O)CCNCc1ccc(-c2ccc3ncnc(Nc4ccc(OCc5cccc(F)c5)c(Cl)c4)c3c2)o1 [lapatinib] (first compound 0.4 µM, partner dose 0.8 µM) | 33.9% | 78.7% | 102% | 199% | 79.5% | 104% | 26.4% | 84.1% | 86.8% | 126% | 115% | 101% | 96.7% | 331%
10 | COc1ccc(C2=N[C@@H](c3ccc(Cl)cc3)[C@@H](c3ccc(Cl)cc3)N2C(=O)N2CCNC(=O)C2)c(OC(C)C)c1 [Nutlin-3] + Cc1cc(Nc2cc(N3CCN(C)CC3)nc(/C=C/c3ccccc3)n2)n[nH]1 [ENMD2076] (first compound 0.1 µM, partner dose 0.04 µM) | 71.1% | 82.9% | 105% | 114% | 83% | 77.4% | 112% | 87.8% | 119% | 72.6% | 94.6% | 36.5% | 94.9% | 20.5%

Limited to cleaved PARP positive nuclei fraction (RVH-421) (2 entries from above):

| Row | SMILES | cleaved PARP positive nuclei fraction (RVH-421) |
| --- | --- | --- |
| 2 | CC1(C)CCC(c2ccc(Cl)cc2)=C(CN2CCN(c3ccc(C(=O)NS(=O)(=O)c4ccc(N[C@H](CCN5CCOCC5)CSc5ccccc5)c(S(=O)(=O)C(F)(F)F)c4)cc3)CC2)C1 + NC(=O)c1ccc(N(C(N)=O)c2c(F)cccc2F)nc1-c1ccc(F)cc1F [VX702] (first compound 0.4 µM, partner dose 0.4 µM) | 566% |
| 3 | Cn1sc(=O)n(Cc2ccccc2)c1=O + CCCS(=O)(=O)Nc1ccc(F)c(C(=O)c2c[nH]c3ncc(Cl)cc23)c1F [PLX4720] (first compound 0.4 µM, partner dose 0.08 µM) | 84.3% |
